These are yes or no findings as the source states them, for the method shown. Some results given as binding are weak or reduced against the parent protein; the word gives no strength.

Sequences of proteins named here, by UniProt entry; tags and fusion partners are left off. Residues count along the entry.
UniProt Q8ND25, residues 139-227: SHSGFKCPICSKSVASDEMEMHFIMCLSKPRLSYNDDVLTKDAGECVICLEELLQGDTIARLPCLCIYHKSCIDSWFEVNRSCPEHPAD
UniProt P61088: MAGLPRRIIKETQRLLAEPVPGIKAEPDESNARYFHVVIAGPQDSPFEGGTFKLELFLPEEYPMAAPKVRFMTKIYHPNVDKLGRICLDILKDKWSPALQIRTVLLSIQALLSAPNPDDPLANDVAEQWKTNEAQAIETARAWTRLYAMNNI

In experiment [1] the target is ZNRF1^CTD (C-terminal domain of ZNRF1, residues 139–227) (UniProt Q8ND25). The experiment in a line: SEC; analytical, Superdex 75 10/300 GL; 20 mM Na-HEPES pH 7.7, 150 mM NaCl, 0.5 mM DTT; calibrated with molecular mass markers; both purified.
For experiment [2] the target is unchanged. As to the kind of experiment: crystal structure; SEC-purified ZNRF1^CTD : Ube2N complex; hanging drop, 20°C, 0.2 M magnesium formate, 20% PEG 3350; Zn SAD phasing; 1.47 Å; both purified.

Take “Ube2N (from UniProt P61088 1-152) (enzyme)”: the binding entry in experiment [1] and in experiment [2] was “binds” each time.

Source of the values: article PMC5941314.
